For two substances, binding results are on record in article PMC11564821.

By UniProt entry, the sequences of proteins in these tests, tags left out.
UniProt P19474: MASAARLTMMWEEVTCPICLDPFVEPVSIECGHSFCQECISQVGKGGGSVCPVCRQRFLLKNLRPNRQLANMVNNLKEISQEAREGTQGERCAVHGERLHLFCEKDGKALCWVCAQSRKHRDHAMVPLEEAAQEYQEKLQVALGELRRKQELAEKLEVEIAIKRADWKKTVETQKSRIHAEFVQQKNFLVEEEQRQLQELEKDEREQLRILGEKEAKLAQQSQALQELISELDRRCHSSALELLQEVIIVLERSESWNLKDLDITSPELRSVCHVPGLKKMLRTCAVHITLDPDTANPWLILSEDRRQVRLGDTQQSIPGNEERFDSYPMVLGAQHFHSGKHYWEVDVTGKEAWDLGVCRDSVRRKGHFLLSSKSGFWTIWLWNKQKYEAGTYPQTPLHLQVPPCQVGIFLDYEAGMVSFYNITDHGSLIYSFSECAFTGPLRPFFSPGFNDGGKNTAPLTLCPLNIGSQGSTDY

Assay [1] deals with T1, HA-MDM4 (overexpressed in HEK293T) (UniProt O15151).
T1 sequence: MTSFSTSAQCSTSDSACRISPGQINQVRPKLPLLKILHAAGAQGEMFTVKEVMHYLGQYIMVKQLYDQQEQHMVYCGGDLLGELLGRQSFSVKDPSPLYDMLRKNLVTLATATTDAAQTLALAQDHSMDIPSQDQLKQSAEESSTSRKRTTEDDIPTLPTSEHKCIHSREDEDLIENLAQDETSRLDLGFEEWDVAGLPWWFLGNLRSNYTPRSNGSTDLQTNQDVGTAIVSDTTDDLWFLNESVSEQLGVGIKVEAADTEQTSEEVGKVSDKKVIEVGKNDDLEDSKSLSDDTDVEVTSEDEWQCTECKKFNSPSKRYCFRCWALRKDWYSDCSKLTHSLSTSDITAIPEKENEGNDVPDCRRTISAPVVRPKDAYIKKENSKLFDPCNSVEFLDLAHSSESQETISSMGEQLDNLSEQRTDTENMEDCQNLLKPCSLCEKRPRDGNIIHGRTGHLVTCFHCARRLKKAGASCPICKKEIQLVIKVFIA
Kind of assay: co-IP; two tagged proteins overexpressed together in HEK293T, each in turn immunoprecipitated by its tag; lysate supernatant with beads at 4 °C overnight, five washes with lysis buffer, immunoblot. For orientation: A western blot detects proteins with antibodies after separation by electrophoresis.

For assay [2], the target named is T2, HA-MDM4 (overexpressed in HT29) (UniProt O15151).
T2 sequence: T1 sequence
Kind of assay: co-IP; tagged protein overexpressed in HT29 and immunoprecipitated by its tag, endogenous partner detected by immunoblot; beads at 4 °C overnight, five washes with lysis buffer.

No constants are given. Whether binding was seen depends on the method and setting. In cells and extracts the contact can be indirect. Some entries that bind do so weakly or less than the wild type. Sequences can lack the tags named with a protein.

As for “Myc-TRIM21 (overexpressed in HEK293T) (from UniProt P19474 1-475)”, the binding result in assay [1] is “binds”.

Consider “endogenous TRIM21 (HT29) (from UniProt P19474 1-475)”, for which, in assay [2], the binding result is “binds”.
